From publication PMC3870133

Amino acid sequences for entries named in this document (tags omitted). A change or cut given only in a name is not applied to a line headed by its entry. Residues count along the entry.
UniProt P30561: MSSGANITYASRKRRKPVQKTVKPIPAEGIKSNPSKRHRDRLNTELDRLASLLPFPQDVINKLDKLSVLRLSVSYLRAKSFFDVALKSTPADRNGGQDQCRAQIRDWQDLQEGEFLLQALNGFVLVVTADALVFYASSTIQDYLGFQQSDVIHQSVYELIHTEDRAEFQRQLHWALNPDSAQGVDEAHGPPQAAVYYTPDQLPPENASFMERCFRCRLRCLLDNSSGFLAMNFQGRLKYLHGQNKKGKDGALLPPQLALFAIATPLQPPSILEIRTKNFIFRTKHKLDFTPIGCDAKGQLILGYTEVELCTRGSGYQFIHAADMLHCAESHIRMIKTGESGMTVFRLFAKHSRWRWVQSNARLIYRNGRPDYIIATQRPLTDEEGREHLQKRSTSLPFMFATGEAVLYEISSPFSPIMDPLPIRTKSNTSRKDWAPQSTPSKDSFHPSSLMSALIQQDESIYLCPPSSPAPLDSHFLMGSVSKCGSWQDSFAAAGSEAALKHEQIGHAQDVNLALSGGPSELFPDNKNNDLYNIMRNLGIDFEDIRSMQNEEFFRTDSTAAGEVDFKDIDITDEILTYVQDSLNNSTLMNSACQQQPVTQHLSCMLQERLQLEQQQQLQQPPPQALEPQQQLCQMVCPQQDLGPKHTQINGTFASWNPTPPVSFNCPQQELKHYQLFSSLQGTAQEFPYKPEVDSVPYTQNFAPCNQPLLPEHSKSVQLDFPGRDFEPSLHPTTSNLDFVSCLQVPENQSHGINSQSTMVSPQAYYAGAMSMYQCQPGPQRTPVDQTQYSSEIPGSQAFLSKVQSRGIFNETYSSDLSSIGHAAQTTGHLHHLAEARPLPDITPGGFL
UniProt Q03265, residues 44-553: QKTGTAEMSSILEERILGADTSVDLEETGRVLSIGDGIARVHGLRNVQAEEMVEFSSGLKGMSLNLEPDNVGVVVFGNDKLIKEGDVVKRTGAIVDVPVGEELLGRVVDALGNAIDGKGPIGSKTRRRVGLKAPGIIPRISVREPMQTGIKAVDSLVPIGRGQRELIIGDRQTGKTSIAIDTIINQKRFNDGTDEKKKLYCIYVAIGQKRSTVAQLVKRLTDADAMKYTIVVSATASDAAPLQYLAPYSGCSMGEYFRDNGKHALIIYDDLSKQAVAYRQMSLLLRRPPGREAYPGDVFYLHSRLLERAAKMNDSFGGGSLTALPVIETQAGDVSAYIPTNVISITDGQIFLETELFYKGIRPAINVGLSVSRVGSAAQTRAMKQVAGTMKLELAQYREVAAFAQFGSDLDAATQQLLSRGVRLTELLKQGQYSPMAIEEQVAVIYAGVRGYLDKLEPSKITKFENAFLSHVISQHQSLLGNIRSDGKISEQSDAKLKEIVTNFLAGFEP
UniProt Q9JLV1: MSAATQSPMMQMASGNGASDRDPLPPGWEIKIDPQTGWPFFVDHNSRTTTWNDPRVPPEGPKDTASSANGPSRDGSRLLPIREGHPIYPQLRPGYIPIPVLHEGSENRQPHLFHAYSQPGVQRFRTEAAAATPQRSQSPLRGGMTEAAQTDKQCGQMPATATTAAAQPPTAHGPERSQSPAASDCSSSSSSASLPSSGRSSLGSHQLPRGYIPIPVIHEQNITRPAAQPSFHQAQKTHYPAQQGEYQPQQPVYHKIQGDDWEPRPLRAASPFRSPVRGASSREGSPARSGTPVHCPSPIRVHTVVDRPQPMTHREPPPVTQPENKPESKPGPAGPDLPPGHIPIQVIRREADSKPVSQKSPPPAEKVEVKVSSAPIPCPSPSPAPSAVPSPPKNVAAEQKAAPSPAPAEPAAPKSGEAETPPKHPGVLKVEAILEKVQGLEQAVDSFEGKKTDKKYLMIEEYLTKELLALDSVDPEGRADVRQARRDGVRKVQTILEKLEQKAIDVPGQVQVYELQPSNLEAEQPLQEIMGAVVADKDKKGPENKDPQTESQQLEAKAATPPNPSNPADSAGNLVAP
UniProt Q7SIG6: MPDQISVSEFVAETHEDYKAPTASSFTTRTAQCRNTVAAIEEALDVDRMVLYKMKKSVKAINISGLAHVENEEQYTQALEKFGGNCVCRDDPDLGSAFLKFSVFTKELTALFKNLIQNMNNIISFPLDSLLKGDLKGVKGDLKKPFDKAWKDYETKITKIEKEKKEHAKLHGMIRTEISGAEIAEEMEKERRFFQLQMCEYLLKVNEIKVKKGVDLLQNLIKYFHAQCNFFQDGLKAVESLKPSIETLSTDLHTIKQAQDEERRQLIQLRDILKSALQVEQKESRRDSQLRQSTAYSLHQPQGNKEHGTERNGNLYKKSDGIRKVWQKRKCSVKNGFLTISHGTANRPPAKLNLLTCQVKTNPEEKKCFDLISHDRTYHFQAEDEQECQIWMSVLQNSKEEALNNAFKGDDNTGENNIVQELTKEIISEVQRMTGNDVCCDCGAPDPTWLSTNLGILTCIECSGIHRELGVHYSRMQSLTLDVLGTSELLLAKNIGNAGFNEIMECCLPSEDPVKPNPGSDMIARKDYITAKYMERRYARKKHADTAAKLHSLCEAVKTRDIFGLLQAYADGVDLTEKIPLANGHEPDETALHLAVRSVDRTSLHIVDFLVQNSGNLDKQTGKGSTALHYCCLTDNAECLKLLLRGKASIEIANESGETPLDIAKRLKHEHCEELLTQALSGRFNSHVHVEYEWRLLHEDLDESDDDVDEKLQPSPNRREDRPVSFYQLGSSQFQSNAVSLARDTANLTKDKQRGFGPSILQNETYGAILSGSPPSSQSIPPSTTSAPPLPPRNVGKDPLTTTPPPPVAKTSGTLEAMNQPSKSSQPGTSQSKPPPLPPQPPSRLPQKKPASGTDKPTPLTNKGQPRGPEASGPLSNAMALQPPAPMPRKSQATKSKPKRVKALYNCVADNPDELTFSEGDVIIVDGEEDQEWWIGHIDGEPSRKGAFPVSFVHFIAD
UniProt Q04207: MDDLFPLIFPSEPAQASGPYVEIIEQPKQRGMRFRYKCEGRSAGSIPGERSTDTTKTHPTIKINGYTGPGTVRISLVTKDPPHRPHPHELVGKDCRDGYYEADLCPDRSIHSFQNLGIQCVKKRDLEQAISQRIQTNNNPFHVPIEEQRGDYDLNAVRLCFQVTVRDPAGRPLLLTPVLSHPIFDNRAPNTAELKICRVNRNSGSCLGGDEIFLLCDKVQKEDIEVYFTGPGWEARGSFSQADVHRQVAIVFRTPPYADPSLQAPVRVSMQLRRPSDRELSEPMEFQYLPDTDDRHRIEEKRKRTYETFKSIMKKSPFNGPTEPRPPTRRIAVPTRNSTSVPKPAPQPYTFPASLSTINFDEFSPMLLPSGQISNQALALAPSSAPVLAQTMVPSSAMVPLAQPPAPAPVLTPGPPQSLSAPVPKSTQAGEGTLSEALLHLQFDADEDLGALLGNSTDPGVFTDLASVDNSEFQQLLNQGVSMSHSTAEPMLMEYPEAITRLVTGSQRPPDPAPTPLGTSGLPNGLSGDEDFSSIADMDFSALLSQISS
UniProt Q9R0T7: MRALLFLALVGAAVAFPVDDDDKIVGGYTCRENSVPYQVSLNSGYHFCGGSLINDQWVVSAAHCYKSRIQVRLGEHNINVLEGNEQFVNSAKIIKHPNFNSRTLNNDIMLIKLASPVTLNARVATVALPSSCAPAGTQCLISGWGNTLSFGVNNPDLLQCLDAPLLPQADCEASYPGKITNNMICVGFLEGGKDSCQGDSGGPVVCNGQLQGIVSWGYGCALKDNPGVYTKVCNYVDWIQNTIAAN

B1: cAMP responsive element binding protein 3-like 3 (Creb3l3) (protein, UniProt Q91XE9 1-479)
chain: MDGDIAAGKMASPVCAMAPLDSMEVLDLLFDRQDGILRNVELAEGWILAREEQKVLLNSDSDEFLNCILGPGDSDPSSPLWSPADSDSGISEDLPSDPQDTPPRSGTEPANTVARCHTREQGKGPCPSYLPSTPCPEPPRTQVQESSVAIDLDMWSTDTLYPEEPAGSPSRFNLTVKELLLSGGSGDLQQHSLAASQLLGPGSGHCQELVLTEDEKKLLAKEGVTLPTQLPLTKYEERVLKKIRRKIRNKQSAQESRKKKKEYIDGLENRMSACTAQNQELQRKVLHLEKQNLSLLEQLKHLQALVVQSTSKPAHAGTCIAVLLLSFALIILPSISPFNSNKVDSPGDFVPVRVFSRTLHNHAASRVAPDVTPGSEVPGPWPDVGTPHKGPSSGGLSADWGNFLEIPMLDNLTEELDNSTLVLANSTEDLGRATLLDWVASEPLLSPGRVGLEIPGEMWLSWVPRWLRVRLVQDALGVL
B2: retinoblastoma protein (Rb) (protein, UniProt P13405 1-921)
chain: MPPKAPRRAAAAEPPPPPPPPPREDDPAQDSGPEELPLARLEFEEIEEPEFIALCQKLKVPDHVRERAWLTWEKVSSVDGILEGYIQKKKELWGICIFIAAVDLDEMPFTFTELQKSIETSVYKFFDLLKEIDTSTKVDNAMSRLLKKYNVLCALYSKLERTCELIYLTQPSSALSTEINSMLVLKISWITFLLAKGEVLQMEDDLVISFQLMLCVVDYFIKFSPPALLREPYKTAAIPINGSPRTPRRGQNRSARIAKQLENDTRIIEVLCKEHECNIDEVKNVYFKNFIPFINSLGIVSSNGLPEVESLSKRYEEVYLKNKDLDARLFLDHDKTLQTDPIDSFETERTPRKNNPDEEANVVTPHTPVRTVMNTIQQLMVILNSASDQPSENLISYFNNCTVNPKENILKRVKDVGHIFKEKFANAVGQGCVDIGVQRYKLGVRLYYRVMESMLKSEEERLSIQNFSKLLNDNIFHMSLLACALEVVMATYSRSTLQHLDSGTDLSFPWILNVLNLKAFDFYKVIESFIKVEANLTREMIKHLERCEHRIMESLAWLSDSPLFDLIKQSKDGEGPDNLEPACPLSLPLQGNHTAADMYLSPLRSPKKRTSTTRVNSAANTETQAASAFHTQKPLKSTSLALFYKKVYRLAYLRLNTLCARLLSDHPELEHIIWTLFQHTLQNEYELMRDRHLDQIMMCSMYGICKVKNIDLKFKIIVTAYKDLPHAAQETFKRVLIREEEFDSIIVFYNSVFMQRLKTNILQYASTRPPTLSPIPHIPRSPYKFSSSPLRIPGGNIYISPLKSPYKISEGLPTPTKMTPRSRILVSIGESFGTSEKFQKINQMVCNSDRVLKRSAEGGNPPKPLKKLRFDIEGADEADGSKHLPAESKFQQKLAEMTSTRTRMQKQRMNESKDVSNKEEK

Assays:
[1] = target: AHR-TAP (murine aryl-hydrocarbon receptor with C-terminal TAP tag) (murine) (UniProt P30561); experiment: affinity purification with mass spectrometry; AHR-TAP as bait from lysate of stable Hepa1c1c7 cells treated with DMSO (0.01%) or TCDD (10 nM; 30, 120 or 240 min); IgG Sepharose, AcTEV cleavage, calmodulin resin, 4°C; eluate separated on gel, bands digested and analysed by LC-MS/MS; GFP-TAP as negative control; 3 independent experiments
[2] = target: AHR-TAP (murine aryl-hydrocarbon receptor with C-terminal TAP tag) (murine) (UniProt P30561); experiment: as above; remark: listed apart in the source

Molecule	binding [1]	binding [2]
ATP synthase F1 complex, alpha subunit (ATP5α1) (from UniProt Q03265 44-553)	binds	–
Bcl2-associated athanogene 3 (Bag3) (from UniProt Q9JLV1 1-577)	binds	–
ArfGAP with SH3 domain, ankyrin repeat and PH domain 2 (Asap2) (from UniProt Q7SIG6 1-958)	binds	–
RelA of the NFκB complex (from UniProt Q04207 1-549)	no binding	–
Tesp4 (from UniProt Q9R0T7)	binds	–
B1	–	binds
B2	–	no binding

Where two headings read alike, the source gives them in different places. Results are given in words; binding and its absence hold for the method and conditions named. Binding seen in cells or lysates may run through a third protein. Here binding means that the protein was enriched with, or labelled near, the bait; the list need not be complete. A no says only that the protein was not detected with the bait.
